The series is described as follows: LCMS and standard curve analysis of the concentration of each active ingredient in solution. In kind it is physicochemical. Particulars: three samples of solutions containing the three active ingredients; LCMS, standard curve. As to the method: The solutions were analyzed by LCMS and standard curve analysis to confirm the identity and quantity of each active ingredient and are summarized below. Separate stock solutions of moxifloxacin HCI, dexamethasone, and sodium bromfenac were used as standards. Three different samples of solutions containing the three active ingredients, i.e., moxifloxacin HCI, dexamethasone, and sodium bromfenac were analyzed for the concentration of moxifloxacin in solution, the concentration of dexamethasone in solution, and the concentration of sodium bromfenac in solution.

Consider `C[C@@H]1C[C@H]2[C@@H]3CCC4=CC(=O)C=C[C@]4(C)[C@@]3(F)[C@@H](O)C[C@]2(C)[C@@]1(O)C(=O)COP(=O)(O)O` [dexamethasone sodium phosphate], for which the “Concentration in Solution” value is 1102 µg/mL.
